The experiment deals with T1, Flag-CREG1 (cellular repressor of E1A-stimulated genes 1) (chicken) (UniProt Q5ZJ73).
T1 sequence: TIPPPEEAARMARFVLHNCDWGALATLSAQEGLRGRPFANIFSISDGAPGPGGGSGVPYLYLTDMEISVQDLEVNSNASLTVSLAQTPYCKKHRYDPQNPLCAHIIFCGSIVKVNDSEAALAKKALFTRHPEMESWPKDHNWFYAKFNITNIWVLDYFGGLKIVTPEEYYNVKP
Briefly: affinity purification with mass spectrometry; lysate (1000 μg) of Flag-CREG1 overexpressing DF-1 cells under viral infection; Flag antibody or IgG control with protein A/G beads overnight at 4 °C; 10% SDS-PAGE, silver staining, LC-MS/MS.

No constants are given. Whether binding was seen depends on the method and setting. In cells and extracts the contact can be indirect. These calls come from enrichment with a bait or labelling near it, and not all partners need be listed. Where a sequence is shown, tags or fusion partners need not be part of it.

B1: endogenous HSPD1 (heat shock protein family D (Hsp60) member 1) (protein, UniProt Q5ZL72 27-573)
chain: AKDVKFGADARALMLQGVDLLADAVAVTMGPKGRTVIIEQSWGSPKVTKDGVTVAKAIDLKDKYKNIGAKLVQDVANNTNEEAGDGTTTATVLARAIAKEGFEKISKGANPVEIRRGVMLAVDAITAELKKLSKPVTTPEEIAQVATISANGDQEIGNIISDAMKKVGRKGVITVKDGKTLNDELEIIEGMKFDRGYISPYFINTAKGQKCEFQDAYVLISEKKISSVQSIVPALEIANSHRKPLVIIAEDVDGEALSTLVLNRLKVGLQVVAVKAPGFGDNRKNQLKDMAIATGGAVFGEEGLSLNVEDIQPHDFGKVGEVIVTKDDTMLLKGKGEKAQIEKRIQEIIEQLEVTTSEYEKEKLNERLAKLSDGVAVLKVGGTSDVEVNEKKDRVTDALNATRAAVEEGIVPGGGCALLRCIPALDALKPANEDQKIGIEIIKRTLKIPAMTIAKNAGVEGSLIVEKILQSSSEVGYDAMLGEFVNMVEKGIIDPTKVVRTALMDAAGVASLLSTAEAVVTEVPKEEKEPAMGGMGGMGGGMGGGMF
Turning to B1, the binding entry was “binds”.

B2: PHB (protein, UniProt P84173 1-272)
chain: MAAKVFESIGKFGLGLAVAGGVVNSALYNVDAGHRAVIFDRFRGVQDTVVGEGTHFLIPWVQKPIIFDCRSRPRNIPVITGSKDLQNVNITLRILFRPVTAQLPRIFTSIGEDYDERVLPSITTEILKSVVARFDAGELITQRELVSRQVSEDLTERAATFGLILDDVSLTHLTFGKEFTEAVEMKQVAQQEAERARFIVEKAEQQKKAAVISAEGDSKAAELIANSLATAGDGLIELRKLEAAEDIAYQLSRSRNITYLPSGQSVLLQLPQ
Regarding B2, the binding result was “binds”.

Values taken from article PMC12867876.
